# Several values for one entry are separate records, joined by “and”; a condition that tells them apart may be missing. Identical values can stand only once. Out of some 340,000 compounds screened, about 170 (0.05%) were called active. Inconclusive means that the source gave no clear call. Such entries were picked first, then a sample of the others. Calls follow the shape of the dose curve; as a rule, active = well fitted inhibition curve with a large enough effect in the signal ratio, with a control signal flat (not every such curve was filed as active); inconclusive = small, poorly fitted or top-dose-only effect, or effect the other way, or a change in a side signal; inactive = flat fitted curve, though single readings scatter; the % refers to the signal ratio. Potencies of inconclusive entries are doubtful fits and often do not repeat.
# Test: qHTS Assay to Find Inhibitors of Chronic Active B-Cell Receptor Signaling;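 as to activity change, negative = inhibition: plate controls were basal doxycycline-induced cells for no effect and cells given 10 µM MG132 for full effect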
# Details: ABC-DLBCL IkBa-CBG/CBR reporter, luminescence ratio (green luciferase fused to IkBa over red control in TMD8 lymphoma cells), 4 h; activity change, negative = inhibition: at 46.1 µM (top of the series) unless noted
# Summary of the method: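 Cell line TMD8 (human ABC DLBCL), stably expressing tet-inducible CBG68-IkBa fusion and CBR; IMDM/0.5% FBS; cpd up to 46 uM; dox induction, 4 h, 37C/5% CO2; dual luminescence; green/red ratio; MG132 control.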
# Potency is read from the fitted curve at half-maximal effect.
Structure (SMILES),"activity change, negative = inhibition",Potency
CCOC(=O)[C@H]1[C@H]2COc3cc(OC)ccc3[C@@H]2N2C(=O)c3ccc(F)cc3NC(=O)[C@@]12C,inconclusive: -3.19%,
COc1ccc(-n2c(SCC(=O)Nc3cc(C)on3)nc3ccccc3c2=O)cc1Cl,inconclusive: 7.37%,
Cc1ccc(CNC(=O)CSc2c3c(nc4ccc(Cl)cc24)CCCC3)o1,,"inconclusive: 16.4 µM [falling, partial curve, poor fit]"
CCOc1ccccc1NC(=O)NNC(=O)c1ccc2ccccc2c1,,"inconclusive: 25.1 µM [falling, single point]"
O=S(=O)(Nc1cc(Cl)cc(Cl)c1)N1CCOCC1,inactive,
C=CCCC(=O)Nc1nc(C)c(-c2csc(Nc3ccc(Cl)cc3)n2)s1,,"inconclusive: 2 µM [rising, full curve, poor fit]"
CS(=O)(=O)N1CCN(C(=O)c2csc3ccccc23)CC1,inconclusive: 8.22%,
N#Cc1c(N)nc2c(c1N)CC(C(F)(F)F)O2 (centres undefined),inconclusive: 16.2%,
COc1ccc(C(=O)C2CCCN(C(=O)/C=C/c3ccccn3)C2)c(C)c1 (centres undefined),,"inconclusive: 35.5 µM [falling, single point]"
Cc1cccc(Nc2nnc(SCC(=O)Nc3ccccc3[N+](=O)[O-])s2)c1,inconclusive: -20.7%,
O=C(c1ccc(F)cc1)C1CCN(C(=O)N2CCOCC2)CC1,inconclusive: 1.47%,
COc1ccc(C(=O)Cn2nnc(-c3ccccc3NC(=O)C3CC3)n2)cc1,inactive,
CCOC(=O)C1=C(CSc2nc3c(cc2C#N)CN(C)CC3)OC(N)=C(C#N)C1c1ccc(Cl)cc1 (centres undefined),inactive,
COc1ccc(N2C(=O)C(Cl)=C(N3CCOCC3)C2=O)cc1,inactive,
O=C(Nc1ccccc1)OC1CC2CC1C1CCCC21 (centres undefined),,"inconclusive: 17.8 µM [falling, single point]"
CC1S/C(=N/N=C/c2cccs2)NC1=O (centres undefined),inconclusive: 5.12%,
Cc1ccc(CN2C(=O)CCC2C(=O)NCc2ccc(F)cc2)cc1 (centres undefined),inconclusive: 17.8%,
Cc1cc(-c2nnc3n2N=C(c2ccc(-c4ccccc4)cc2)CS3)n[nH]1,inconclusive: 13%,
CNC(=O)CN(c1cc(C)ccc1OC)S(=O)(=O)c1ccc(C)cc1,inconclusive: 4.79%,
CCc1nnc(NS(=O)(=O)c2ccc(NC(=S)NC(=O)c3ccc(OC)cc3)cc2)s1,inactive,
CCn1cc(CN2CCC(C(=O)Nc3cccc(-c4cccc(Cl)c4)c3)CC2)cn1,inconclusive: -18.1%,
O=C(CCC1COc2ccccc2O1)NCc1ccccc1 (centres undefined),,"inconclusive: 1.3 µM [rising, full curve, poor fit]"
C=CCn1cccc(C(=O)Nc2ccc(OC)c(OC)c2)c1=O,,"inconclusive: 35.5 µM [falling, partial curve, poor fit]"
CCCC1(C(=O)OCC)NC(c2ccc(N(C)C)cc2)C2C(=O)N(c3ccc(OCC)cc3)C(=O)C21 (centres undefined),inconclusive: 1.77%,
CCOC(=O)c1cc(C#N)c(Oc2cccc(C(F)(F)F)c2)nc1-c1ccccc1,inactive,
COc1ccc2nc(/C=N/NC(=O)[C@H](CCSC)NC(=O)OC(C)(C)C)ccc2c1,inconclusive: 0.913%,
CCNC(=O)COC(=O)c1cc(S(=O)(=O)N2CCCCC2)ccc1C,inconclusive: 0.467%,

Structure (SMILES),"activity change, negative = inhibition",Potency
CCOc1ccc(N(CC(=O)NCC2CCCO2)S(=O)(=O)c2ccc(SC)cc2)cc1 (centres undefined),inactive,
O=C(CCc1ccccc1)N1CCN(c2ccc(F)cc2)CC1,inconclusive: 2.67%,
C/C=C/C=C/C(=O)Nc1cccc(C2=NOC3(C2)C[C@H](C(N)=O)N(C(=O)CC(c2ccccc2)c2ccccc2)C3)c1 (some centres undefined),inconclusive: -9.14%,
Cc1ccc(C)c(OCC(=O)Nc2cccc(C(=O)O)c2)c1C,inconclusive: 0.691%,
COC(=O)C1=C(C)N(Cc2ccccc2)C(=NCC(C)C)N[C@H]1c1cccc(F)c1,inconclusive: -4.04% and inconclusive: -3.3%,
COc1ccc(Nc2nc(N)nc(C(F)(F)F)n2)c(OC)c1,inconclusive: 5.54%,
O=C(NCC1CC1(Cl)Cl)Nc1ccc(Cl)c(Cl)c1 (centres undefined),inconclusive: 2.59%,
N/C(Cc1ccccc1)=N\OC(=O)c1cccc2ccccc12,inconclusive: 14.8%,
Cc1ccc(NC(=S)N=Nc2c(O)[nH]c3ccccc23)cc1,,"inconclusive: 3.98 µM [falling, single point]"
COC(=O)c1ccc(N=NN2CCOCC2)cc1,inconclusive: 3.43%,
Cc1c(C(=O)Nc2ccc(Br)cc2F)sc2ncnc(N(C)C3CCCCC3)c12,inactive,
O=C(CN1CCC(C(=O)c2ccc(Cl)cc2)CC1)NC1CCCC1,inactive,
COc1ccc(C(=O)NCC23C=CC(O2)C2C(=O)N(Cc4ccccc4)C(=O)C23)cc1 (centres undefined),,"inconclusive: 22.4 µM [falling, single point]"
Cc1cccc(N(CC(=O)NCc2ccc3c(c2)OCO3)C(=O)CCC(=O)Nc2ccccn2)c1C,inconclusive: 7.91%,
O=C(Cc1cccs1)NCCn1ccc2ccccc21,inconclusive: 6.49%,
COc1ccc(OC)c(S(=O)(=O)N2CCN(c3ccccn3)CC2)c1,inactive,
Cc1cc(Cl)ccc1OC(C)C(=O)N1CCCN(C(=O)C(C)Oc2ccc(Cl)cc2C)CC1 (centres undefined),inconclusive: -0.542%,
C/C(=N\NC(=O)c1ccc(Cl)cc1)c1ccc2[nH]ccc2c1,,"inconclusive: 12.6 µM [falling, partial curve, poor fit]"
S=C(NCc1ccco1)N/N=C/c1ccc(Cl)cc1,,"inconclusive: 29.1 µM [falling, single point]"
Cc1ccccc1NC(=O)C1COc2ccccc2O1 (centres undefined),inconclusive: 7.53%,
N#CCN=C(c1ccccc1)c1ccccc1,inactive,
COc1ccccc1C(CNC(=O)c1ccc(-c2ccccc2Cl)o1)N1CCCC1 (centres undefined),,"inconclusive: 29.1 µM [falling, single point]"
Cc1ccc(S(=O)(=O)N2CCCC2CNC(=O)C(=O)Nc2ccc(F)cc2F)cc1 (centres undefined),,"inconclusive: 23.1 µM [falling, partial curve]"
COc1ccc(OC)c(Nc2nc(-c3sc(NC(=O)c4ccccc4)nc3C)cs2)c1,,"inconclusive: 22.4 µM [falling, single point]"
CC1CCC(NC(=O)C2CC(=O)N(c3ccc(Cl)cc3)C2)CC1 (centres undefined),inactive,
COc1ccc(S(=O)(=O)/N=C2/C=CC(=O)C(C)=C2C)cc1,inactive,
COc1ccc(NC(=O)NCCCCc2ccccc2)cc1,inactive,

Structure (SMILES),"activity change, negative = inhibition",Potency
O=C(NCc1cccs1)c1cc(-c2cccs2)on1,inconclusive: -10.6%,
Nc1c(C(=O)Nc2ccc(F)cc2)sc2nc(-c3ccco3)ccc12,inconclusive: 8.55%,
COc1cc(/C=N/NC(=O)C(Cc2c[nH]c3ccccc23)NC(=O)OCC(C)C)cc([N+](=O)[O-])c1OCc1ccccc1 (centres undefined),inconclusive: 26.5%,
CCOC(=O)N1CCN(C(=O)COc2cccc3c2CCN(Cc2ccccc2C)C3=O)CC1,,"inconclusive: 9.2 µM [falling, partial curve]"
COC(=O)c1[nH]c2cc(OC)ccc2c1NC(=O)CCN1CCN(c2cccc(C)c2C)CC1,inactive,
O=C(COc1ccc2cc(-c3ccccc3)c(=O)oc2c1)NCC1CCC(C(=O)O)CC1 (centres undefined),,"inconclusive: 3.16 µM [falling, partial curve, poor fit]"
CC(=O)Nc1ccc(-c2csc(NCc3ccccc3)n2)cc1,inconclusive: 3.75%,
CCOc1ccc(CN2CCN(Cc3nc4c(s3)CCCC4)CC2CCO)cc1 (centres undefined),,"inconclusive: 28.2 µM [falling, single point]"
COc1ccc(-c2cc(C#N)nc(Cl)n2)cc1,,"inconclusive: 35.5 µM [falling, single point]"
CCOC(=O)c1c2c3c(cccc3[nH]c1=O)C(=O)c1ccccc1-2,inactive,
CSc1nc(N(C)CCO)c2sc3nc(-c4ccco4)c4c(c3c2n1)CCC4,inactive,
Cc1ccc(NC(=O)c2cnc(SCC(=O)c3ccccc3)n(C)c2=O)cc1,inactive,
O=C(Nc1cccc([N+](=O)[O-])c1)Nc1ccc2c(c1)CCC2,inconclusive: 5.5%,
CC1CCCCC1NC(=O)CN1C(=O)c2ccccc2S1(=O)=O (centres undefined),inconclusive: 6.91%,
COc1ccc(Cl)cc1C(=O)NC(=S)Nc1cc(-c2nc3ccccc3[nH]2)ccc1C,inconclusive: 21.8%,
Fc1cccc(/C=N/n2c(C3CCCCC3)n[nH]c2=S)c1,inconclusive: 0.528%,
Cc1cccc(C(=O)NN2C(=O)C3C(c4ccccc4)C=CC(c4ccccc4)C3C2=O)c1 (centres undefined),inconclusive: 3.24%,
CCn1c(=O)c2c(nc3n2CCCN3CCc2ccc(OC)c(OC)c2)n(C)c1=O,inconclusive: 5.18%,
CCOC(=O)c1ccccc1NC(=O)CSc1nc2[nH]ncc2c(=O)[nH]1,inconclusive: -8.47%,
Cc1ccc(Nc2nc(-c3cccnc3)cs2)cc1Cl,inconclusive: -0.252%,
O=S(=O)(c1ccc(Cl)cc1)c1cnc2ccccc2n1,inconclusive: 1.89%,
COc1cccc(NC(=O)CN(c2cccc(C(F)(F)F)c2)S(C)(=O)=O)c1,inconclusive: -0.602%,
C[C@@H]1CC=C[C@H]2[C@H]1C(=O)N(Cc1ccccc1)[C@H]2c1ccc(-c2ccoc2)cc1F,inconclusive: -12.2%,
O=C(/C=C/c1ccco1)NC(=S)Nc1cccc(C(=O)O)c1,,"inconclusive: 35.5 µM [rising, single point]"
NC(=O)c1sc2nc(-c3cccnc3)ccc2c1N,,"inconclusive: 20 µM [falling, partial curve, poor fit]"

# — PubChem BioAssay AID493014 (National Center for Advancing Translational Sciences (NCATS), 2011)
